Experimental data: article doi:10.1101/2020.04.27.046102
These are yes or no findings as the source states them, for the method shown. Binding seen in cells or lysates may run through a third protein. Some results given as binding are weak or reduced against the parent protein; the word gives no strength.

Chains of the proteins cited; added tags and fusions are not shown. Lines headed by an entry give the natural chain unless they say otherwise; changes in a name come on top. Residues count along the entry.
UniProt Q04206, 1-328, stated change not applied: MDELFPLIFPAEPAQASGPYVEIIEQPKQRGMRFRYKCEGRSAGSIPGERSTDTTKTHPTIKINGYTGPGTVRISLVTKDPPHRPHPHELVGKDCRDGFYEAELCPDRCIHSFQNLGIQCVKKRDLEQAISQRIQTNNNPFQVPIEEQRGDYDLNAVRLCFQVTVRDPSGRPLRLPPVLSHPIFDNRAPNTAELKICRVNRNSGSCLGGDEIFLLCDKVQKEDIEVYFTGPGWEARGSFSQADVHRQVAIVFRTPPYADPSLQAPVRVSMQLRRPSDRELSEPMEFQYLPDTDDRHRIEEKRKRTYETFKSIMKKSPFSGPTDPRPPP
UniProt Q04206, whole entry: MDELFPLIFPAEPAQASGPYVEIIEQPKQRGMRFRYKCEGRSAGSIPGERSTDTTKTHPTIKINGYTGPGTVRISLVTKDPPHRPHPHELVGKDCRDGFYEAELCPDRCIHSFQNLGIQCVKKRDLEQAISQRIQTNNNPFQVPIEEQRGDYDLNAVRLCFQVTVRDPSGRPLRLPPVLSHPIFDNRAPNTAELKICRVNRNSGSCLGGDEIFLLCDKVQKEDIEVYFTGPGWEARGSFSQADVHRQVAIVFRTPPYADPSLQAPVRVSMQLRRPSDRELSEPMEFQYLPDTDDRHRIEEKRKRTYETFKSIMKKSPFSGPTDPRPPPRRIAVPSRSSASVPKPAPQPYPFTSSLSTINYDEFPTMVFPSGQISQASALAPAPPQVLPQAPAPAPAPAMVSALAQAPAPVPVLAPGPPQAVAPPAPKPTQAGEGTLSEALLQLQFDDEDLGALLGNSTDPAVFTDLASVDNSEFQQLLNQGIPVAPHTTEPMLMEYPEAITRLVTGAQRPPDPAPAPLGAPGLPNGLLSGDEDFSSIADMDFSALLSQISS
UniProt P19838, 1-433: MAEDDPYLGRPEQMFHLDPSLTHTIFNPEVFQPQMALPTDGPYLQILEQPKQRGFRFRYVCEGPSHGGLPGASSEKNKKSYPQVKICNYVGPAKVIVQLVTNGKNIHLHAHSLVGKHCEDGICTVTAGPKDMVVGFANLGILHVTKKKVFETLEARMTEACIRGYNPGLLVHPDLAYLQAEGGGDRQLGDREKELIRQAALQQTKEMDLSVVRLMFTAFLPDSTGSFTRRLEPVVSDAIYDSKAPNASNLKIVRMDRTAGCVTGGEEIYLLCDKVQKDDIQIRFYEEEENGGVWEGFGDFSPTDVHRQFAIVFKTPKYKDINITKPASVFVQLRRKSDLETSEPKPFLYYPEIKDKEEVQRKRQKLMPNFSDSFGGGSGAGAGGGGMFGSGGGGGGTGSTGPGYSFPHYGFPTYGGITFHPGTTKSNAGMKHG
UniProt P25963, whole entry: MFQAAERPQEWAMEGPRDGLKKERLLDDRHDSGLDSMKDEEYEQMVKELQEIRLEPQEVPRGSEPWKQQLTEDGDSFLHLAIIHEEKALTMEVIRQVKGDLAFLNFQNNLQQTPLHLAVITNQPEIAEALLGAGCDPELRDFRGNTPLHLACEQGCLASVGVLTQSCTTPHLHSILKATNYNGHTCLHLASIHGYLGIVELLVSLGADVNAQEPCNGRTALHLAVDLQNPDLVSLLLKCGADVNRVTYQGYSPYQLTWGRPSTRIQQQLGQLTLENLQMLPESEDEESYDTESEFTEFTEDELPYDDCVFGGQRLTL

Assays:
Test in all cases: co-IP
[1] = target: RELA/p65 wild-type protein (HA-tagged RELA/p65) (human) (UniProt Q04206)
[2] = target: RELA/p65^R329X truncated mutant protein (HA-tagged) (human) (UniProt Q04206)
[3] = target: RELA/p65^H86N mutant protein (HA-tagged) (human) (UniProt Q04206)

Substance: RELA/p65^R329X truncated mutant protein (HA-tagged) (from UniProt Q04206-1 1-328) (domain or fragment)
- binding [1]: binds
- binding [2]: binds

Substance: NF-κB1/p50 (from UniProt P19838 1-433)
- binding [3]: binds
- binding [2]: binds

Substance: IκB-α (from UniProt P25963 1-317)
- binding [3]: binds
- binding [2]: binds

Substance: RELA/p65^H86N mutant protein (HA-tagged) (from UniProt Q04206-1 1-551)
- binding [3]: binds
- binding [1]: binds
